Experimental data: PubChem BioAssay AID1259270 (Sanger Institute, 2017)

Aim: 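Kinase genes whose loss is synthetically lethal with BYL719, cetuximab or trametinib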 (follow-up of hits)
Cell system: human SNU-C5 colorectal cancer cells
Knock-down reagent: single siRNA against human genes
Conditions: anchor drugs added after knock-down: BYL719 1 µM, cetuximab 5 µg/ml or trametinib 10 nM, or DMSO vehicle
Measurement: 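Replicate survival relative to non-targeting pool 2, then averaged; anchor drug added after silencing; synergy score weighs combination against each single treatment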
Direction: synergy score with BYL719 and synergy score with cetuximab and synergy score with trametinib: higher = stronger synergy (extra killing) with the drug; viability, knock-down alone (DMSO): higher = more cells survive
Hit rule: 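Synergy with at least one drug when any of the three synergy scores is over 0.10; otherwise no synergy with any drug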
Meaning of the calls: active = synergy with at least one drug; inactive = no synergy with any drug
In all, the deposit lists 160 reagents; below is a random part of them. 76 of all reagents (48%) count as active. 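Four separate siRNAs per gene; calls are per siRNA in one cell line, looser than gene-level validation across several lines.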 The numbers tell different reagents against one gene apart. Viability is capped at 1. Reagent sequences are not shown. The record does not give: the amount of reagent, the time to read-out.

target | reagent | synergy score with BYL719 | synergy score with cetuximab | synergy score with trametinib | viability, knock-down alone (DMSO) (fraction of control) | outcome
PFKFB3 | 1 | -0.177 | -0.0474 | -0.184 | 0.608 | inactive
PFKFB3 | 2 | -0.0911 | 0.143 | 0.191 | 0.595 | active
PFKFB3 | 3 | -0.346 | -0.032 | -0.161 | 0.613 | inactive
PFKFB3 | 4 | -0.0951 | 0.0574 | 0.121 | 0.637 | active
IRAK3 | 1 | 0.07 | -0.0691 | 0.0237 | 0.548 | inactive
IRAK3 | 2 | 0.0469 | 0.146 | 0.254 | 1 | active
IRAK3 | 3 | 0.0541 | 0.0482 | 0.172 | 0.941 | active
IRAK3 | 4 | -0.138 | 0.247 | 0.17 | 1 | active
SF3B1 | 1 | 0.0114 | -0.0438 | -0.09 | 0.28 | inactive
SF3B1 | 2 | -0.0898 | -0.0754 | -0.0691 | 0.196 | inactive
SF3B1 | 3 | -0.1 | -0.0146 | -0.122 | 0.411 | inactive
SF3B1 | 4 | -0.239 | -0.0158 | -0.248 | 0.196 | inactive
GTF2H1 | 1 | -0.189 | 0.0531 | -0.149 | 0.768 | inactive
GTF2H1 | 2 | -0.162 | -0.0328 | 0.0931 | 1 | inactive
GTF2H1 | 3 | 0.0231 | 0.147 | -0.16 | 0.864 | active
GTF2H1 | 4 | -0.141 | -0.152 | -0.101 | 0.655 | inactive
CAMK2N1 | 1 | 0.202 | 0.116 | 0.415 | 1 | active
CAMK2N1 | 2 | 0.411 | 0.102 | -0.218 | 0.584 | active
CAMK2N1 | 3 | -0.107 | 0.013 | -0.111 | 0.691 | inactive
CAMK2N1 | 4 | -0.23 | -0.0459 | -0.333 | 0.322 | inactive
PIK3CA | 1 | 0.147 | 0.219 | 0.0125 | 0.869 | active
PIK3CA | 2 | -0.0602 | 0.315 | 0.0642 | 0.613 | active
PIK3CA | 3 | 0.177 | 0.0261 | 0.212 | 0.786 | active
PIK3CA | 4 | -0.0313 | 0.0395 | -0.0467 | 0.756 | inactive
NR2F2 | 1 | 0.132 | 0.0813 | 0.0942 | 0.995 | active
NR2F2 | 2 | -0.019 | 0.124 | 0.156 | 0.977 | active
NR2F2 | 3 | -0.0118 | 0.261 | 0.0908 | 0.971 | active
NR2F2 | 4 | -0.0287 | -0.16 | 0.229 | 0.578 | active
BRAF | 1 | -0.135 | -0.0662 | -0.357 | 0.488 | inactive
BRAF | 2 | -0.203 | -0.117 | -0.101 | 0.667 | inactive
BRAF | 3 | -0.0702 | -0.0241 | -0.098 | 0.244 | inactive
BRAF | 4 | -0.0904 | -0.05 | -0.201 | 0.643 | inactive
MAPKAPK2 | 1 | 0.118 | -0.304 | -0.353 | 0.727 | active
MAPKAPK2 | 2 | -0.0781 | -0.0501 | -0.109 | 1 | inactive
MAPKAPK2 | 3 | -0.0934 | -0.0223 | -0.235 | 0.685 | inactive
MAPKAPK2 | 4 | -0.215 | -0.0501 | -0.0141 | 1 | inactive
CDKN2D | 1 | -0.404 | -0.0245 | -0.0245 | 0.607 | inactive
CDKN2D | 2 | -0.0606 | -0.0827 | 0.116 | 0.571 | active
CDKN2D | 3 | -0.0816 | -0.112 | -0.0184 | 0.935 | inactive
CDKN2D | 4 | -0.0717 | -0.0709 | -0.0755 | 0.584 | inactive

Entries above whose gene name starts with M or m:
target | reagent | synergy score with BYL719 | synergy score with cetuximab | synergy score with trametinib | viability, knock-down alone (DMSO) (fraction of control) | outcome
MAPKAPK2 | 1 | 0.118 | -0.304 | -0.353 | 0.727 | active
MAPKAPK2 | 2 | -0.0781 | -0.0501 | -0.109 | 1 | inactive
MAPKAPK2 | 3 | -0.0934 | -0.0223 | -0.235 | 0.685 | inactive
MAPKAPK2 | 4 | -0.215 | -0.0501 | -0.0141 | 1 | inactive
